{
  "sequences": {"note": "Amino acid sequences for entries named in this document (tags omitted). Residues count along the entry.", "UniProt P10415, residues 1-211": "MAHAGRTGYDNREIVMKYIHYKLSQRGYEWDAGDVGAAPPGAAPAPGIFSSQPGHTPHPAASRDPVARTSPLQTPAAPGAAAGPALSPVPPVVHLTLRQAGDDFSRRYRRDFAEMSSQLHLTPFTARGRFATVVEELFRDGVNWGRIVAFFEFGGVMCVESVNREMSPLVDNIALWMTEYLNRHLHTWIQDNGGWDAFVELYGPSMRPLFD"},
  "source": "patent EP4036575A1",
  "binders": {"B1": {"name": "Bax BH3 peptide (55-74) wild type (peptide, UniProt Q07812 55-74, looked up)", "peptide": "STKKLSECLKRIGDELDSNM"}},
  "molecular_target": "recombinant human B-cell lymphoma protein 2 alpha His-Tag (Bcl-2) (human) (UniProt P10415)",
  "assay": "fluorescence of the His-Bcl-2-sensor 5 complex (200 nM) after addition of Bax BH3",
  "note": "Results are given in words; binding and its absence hold for the method and conditions named. Some entries that bind do so weakly or less than the wild type.",
  "data": [
    {"binder": "B1", "values": [
      {"measurement": "binding", "value": "binds"}
    ]}
  ]
}
